Source: paper PMC7663391
These are yes or no findings as the source states them, for the method shown. For some assays here: Binding seen in cells or lysates may run through a third protein. Some entries that bind do so weakly or less than the wild type. Tags and fused reporters may be left off the sequences shown.

T1: AHA2 C-terminal (amino acids 836-948), yeast two-hybrid fusion (Arabidopsis thaliana) (UniProt P19456)
T1 sequence: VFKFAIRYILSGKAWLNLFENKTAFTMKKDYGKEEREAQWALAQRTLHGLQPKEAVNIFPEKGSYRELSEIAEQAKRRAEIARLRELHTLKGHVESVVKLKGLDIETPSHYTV

T2: AHA2 full length fused to the C-terminal part of YFP (AHA2:pSPYCE(M)) (Arabidopsis thaliana) (UniProt P19456)
T2 sequence: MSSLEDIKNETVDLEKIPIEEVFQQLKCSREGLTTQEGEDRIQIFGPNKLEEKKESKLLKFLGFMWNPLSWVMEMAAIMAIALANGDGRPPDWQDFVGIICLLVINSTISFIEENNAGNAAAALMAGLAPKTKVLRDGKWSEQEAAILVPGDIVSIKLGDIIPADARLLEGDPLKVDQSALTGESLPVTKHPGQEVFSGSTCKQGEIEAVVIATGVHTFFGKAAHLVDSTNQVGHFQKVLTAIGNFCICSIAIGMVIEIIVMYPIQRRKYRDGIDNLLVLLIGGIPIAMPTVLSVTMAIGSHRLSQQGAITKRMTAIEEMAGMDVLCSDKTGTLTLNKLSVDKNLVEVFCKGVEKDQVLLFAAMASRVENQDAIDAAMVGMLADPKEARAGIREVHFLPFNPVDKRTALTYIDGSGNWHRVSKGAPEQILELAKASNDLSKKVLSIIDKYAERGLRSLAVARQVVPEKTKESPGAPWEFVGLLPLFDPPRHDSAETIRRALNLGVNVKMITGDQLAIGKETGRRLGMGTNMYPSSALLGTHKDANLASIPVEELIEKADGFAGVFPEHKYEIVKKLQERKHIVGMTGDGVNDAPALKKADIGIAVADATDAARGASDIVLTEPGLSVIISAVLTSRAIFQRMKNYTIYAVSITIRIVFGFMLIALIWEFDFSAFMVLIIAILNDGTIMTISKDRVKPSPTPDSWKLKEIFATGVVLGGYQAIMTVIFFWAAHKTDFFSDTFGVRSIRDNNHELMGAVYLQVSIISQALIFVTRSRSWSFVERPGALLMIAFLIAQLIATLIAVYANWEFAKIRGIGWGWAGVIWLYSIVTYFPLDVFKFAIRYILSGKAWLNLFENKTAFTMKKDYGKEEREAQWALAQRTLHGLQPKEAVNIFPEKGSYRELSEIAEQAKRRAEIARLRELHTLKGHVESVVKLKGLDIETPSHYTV


Legend:
[1] = target: T1, AHA2 C-terminal (amino acids 836-948), yeast two-hybrid fusion (Arabidopsis thaliana); experiment: two-hybrid; yeast AH109; AHA2 C-terminal as bait, PEPR2 KD as prey; growth on SD-Trp-Leu-His-Ade at dilutions 10^-1 to 10^-3, 30 °C, 4 days; empty pGADT7 and pGBKT7 as negative controls
[2] = target: T2, AHA2 full length fused to the C-terminal part of YFP (AHA2:pSPYCE(M)) (Arabidopsis thaliana); experiment: split reporter; BiFC with split YFP in Nicotiana benthamiana leaves, co-infiltrated with the p19 strain; confocal microscopy 2-3 days after injection; empty YC and YN vectors as controls

Row | binding [1] | binding [2] | Binder
1 | binds |  | PEPR2 kinase domain, C terminus (amino acids 760-1072), yeast two-hybrid fusion (domain or fragment, UniProt Q9FZ59 760-1072) LCRCKRGTKTEDANILAEEGLSLLLNKVLAATDNLDDKYIIGRGAHGVVYRASLGSGEEYAVKKLIFAEHIRANQNMKREIETIGLVRHRNLIRLERFWMRKEDGLMLYQYMPNGSLHDVLHRGNQGEAVLDWSARFNIALGISHGLAYLHHDCHPPIIHRDIKPENILMDSDMEPHIGDFGLARILDDSTVSTATVTGTTGYIAPENAYKTVRSKESDVYSYGVVLLELVTGKRALDRSFPEDINIVSWVRSVLSSYEDEDDTAGPIVDPKLVDELLDTKLREQAIQVTDLALRCTDKRPENRPSMRDVVKD
2 |  | binds | PEPR2 full length fused to the N-terminal part of YFP (pSPYNE(R)173:PEPR2) (receptor, UniProt Q9FZ59 27-1088) LNSDGLALLSLLKHFDKVPLEVASTWKENTSETTPCNNNWFGVICDLSGNVVETLNLSASGLSGQLGSEIGELKSLVTLDLSLNSFSGLLPSTLGNCTSLEYLDLSNNDFSGEVPDIFGSLQNLTFLYLDRNNLSGLIPASVGGLIELVDLRMSYNNLSGTIPELLGNCSKLEYLALNNNKLNGSLPASLYLLENLGELFVSNNSLGGRLHFGSSNCKKLVSLDLSFNDFQGGVPPEIGNCSSLHSLVMVKCNLTGTIPSSMGMLRKVSVIDLSDNRLSGNIPQELGNCSSLETLKLNDNQLQGEIPPALSKLKKLQSLELFFNKLSGEIPIGIWKIQSLTQMLVYNNTLTGELPVEVTQLKHLKKLTLFNNGFYGDIPMSLGLNRSLEEVDLLGNRFTGEIPPHLCHGQKLRLFILGSNQLHGKIPASIRQCKTLERVRLEDNKLSGVLPEFPESLSLSYVNLGSNSFEGSIPRSLGSCKNLLTIDLSQNKLTGLIPPELGNLQSLGLLNLSHNYLEGPLPSQLSGCARLLYFDVGSNSLNGSIPSSFRSWKSLSTLVLSDNNFLGAIPQFLAELDRLSDLRIARNAFGGKIPSSVGLLKSLRYGLDLSANVFTGEIPTTLGALINLERLNISNNKLTGPLSVLQSLKSLNQVDVSYNQFTGPIPVNLLSNSSKFSGNPDLCIQASYSVSAIIRKEFKSCKGQVKLSTWKIALIAAGSSLSVLALLFALFLVLCRCKRGTKTEDANILAEEGLSLLLNKVLAATDNLDDKYIIGRGAHGVVYRASLGSGEEYAVKKLIFAEHIRANQNMKREIETIGLVRHRNLIRLERFWMRKEDGLMLYQYMPNGSLHDVLHRGNQGEAVLDWSARFNIALGISHGLAYLHHDCHPPIIHRDIKPENILMDSDMEPHIGDFGLARILDDSTVSTATVTGTTGYIAPENAYKTVRSKESDVYSYGVVLLELVTGKRALDRSFPEDINIVSWVRSVLSSYEDEDDTAGPIVDPKLVDELLDTKLREQAIQVTDLALRCTDKRPENRPSMRDVVKDLTDLESFVRSTSGSVH
